Measured values as given in the supplement of paper PMC9925115.
± gives the uncertainty stated by the source. The list shows a part of the results, in another mix than the full data.

These compounds were tested on FLX1 (assay: cell viability z-score within plate (CellTiter-Glo), mean of 3 biological replicates; higher = higher viability relative to plate (less growth inhibition)). Details: 2 µM; time (hr): 120.
Description: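 FLX1 fibrolamellar carcinoma cells (DNAJB1-PRKACA fusion), 600 cells/well in 384-well plates, treated with a Selleck kinase inhibitor library (L1200) at 2 uM for 5 days (120 hr); viability by CellTiter-Glo. A z-score was computed within each plate and averaged over three biological replicates.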

| Compound | cell viability z-score within plate |
| --- | --- |
| Cc1ccccc1-n1c(Cn2nc(-c3cccc(O)c3)c3c(N)ncnc32)nc2cccc(C)c2c1=O | -1.67 ± 0.24 |
| Cc1nc2c(-c3cnc(N)nc3)nc(N3CCOCC3)nc2n1C(C)C | 0.31 ± 0.58 |
